{"sequences": {"note": "By UniProt entry, the sequences of proteins in these tests, tags left out.", "UniProt O42839": "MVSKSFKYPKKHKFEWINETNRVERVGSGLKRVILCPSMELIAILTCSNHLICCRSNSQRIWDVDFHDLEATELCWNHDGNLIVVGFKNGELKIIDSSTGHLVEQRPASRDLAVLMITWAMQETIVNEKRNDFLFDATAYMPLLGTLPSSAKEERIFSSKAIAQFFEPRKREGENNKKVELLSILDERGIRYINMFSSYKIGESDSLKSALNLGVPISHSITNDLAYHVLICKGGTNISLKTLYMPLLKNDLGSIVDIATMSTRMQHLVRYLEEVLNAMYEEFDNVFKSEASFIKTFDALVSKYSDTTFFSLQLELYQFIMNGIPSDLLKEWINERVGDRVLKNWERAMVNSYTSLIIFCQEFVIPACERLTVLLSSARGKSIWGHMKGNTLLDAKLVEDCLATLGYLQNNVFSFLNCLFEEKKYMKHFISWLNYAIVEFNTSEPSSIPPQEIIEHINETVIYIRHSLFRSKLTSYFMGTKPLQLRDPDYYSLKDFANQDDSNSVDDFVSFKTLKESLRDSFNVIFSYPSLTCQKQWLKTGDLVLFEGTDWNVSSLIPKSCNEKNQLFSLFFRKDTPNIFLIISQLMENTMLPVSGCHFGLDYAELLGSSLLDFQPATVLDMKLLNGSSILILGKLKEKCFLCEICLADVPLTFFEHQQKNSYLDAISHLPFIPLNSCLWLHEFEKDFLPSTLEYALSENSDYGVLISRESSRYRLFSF", "UniProt O59767": "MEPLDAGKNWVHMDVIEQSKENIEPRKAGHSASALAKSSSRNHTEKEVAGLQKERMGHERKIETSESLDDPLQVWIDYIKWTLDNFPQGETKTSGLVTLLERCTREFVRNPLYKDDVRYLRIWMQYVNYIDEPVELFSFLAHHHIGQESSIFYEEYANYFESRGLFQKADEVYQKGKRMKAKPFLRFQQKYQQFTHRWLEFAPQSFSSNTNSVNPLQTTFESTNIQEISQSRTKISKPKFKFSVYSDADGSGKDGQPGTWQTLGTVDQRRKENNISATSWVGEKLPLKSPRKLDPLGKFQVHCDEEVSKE"}, "source": "paper PMC4755545", "biological_target": "TAP-tagged Lid1 (Apc4), subunit of the APC/C (S. pombe) (UniProt O42839)", "assay": "affinity purification with mass spectrometry; large scale Lid1/Apc4 pull-down on IgG-Dynabeads from lysates of cycling and mitotically arrested (nda3, 18°C) cells, glycine elution, MudPIT", "note": "Results are given in words; binding and its absence hold for the method and conditions named. Binding seen in cells or lysates may run through a third protein. A yes stands for co-enrichment or nearness to the bait. Other partners may have been found.", "data": [{"substance": "Mad3p found in Apc4-TAP purifications (from UniProt O59767 1-310)", "values": [{"measurement": "binding", "value": "binds"}]}]}
